Data from patent US20040018977A1.
Results are given in words; binding and its absence hold for the method and conditions named. For part of these data: Binding seen in cells or lysates may run through a third protein. Some binding calls cover weakened binding; strength is not graded here. Where a sequence is shown, tags or fusion partners need not be part of it.

Sequences of proteins named here, by UniProt entry; tags and fusion partners are left off. Residues count along the entry.
UniProt Q9UIW2, residues 27-1896: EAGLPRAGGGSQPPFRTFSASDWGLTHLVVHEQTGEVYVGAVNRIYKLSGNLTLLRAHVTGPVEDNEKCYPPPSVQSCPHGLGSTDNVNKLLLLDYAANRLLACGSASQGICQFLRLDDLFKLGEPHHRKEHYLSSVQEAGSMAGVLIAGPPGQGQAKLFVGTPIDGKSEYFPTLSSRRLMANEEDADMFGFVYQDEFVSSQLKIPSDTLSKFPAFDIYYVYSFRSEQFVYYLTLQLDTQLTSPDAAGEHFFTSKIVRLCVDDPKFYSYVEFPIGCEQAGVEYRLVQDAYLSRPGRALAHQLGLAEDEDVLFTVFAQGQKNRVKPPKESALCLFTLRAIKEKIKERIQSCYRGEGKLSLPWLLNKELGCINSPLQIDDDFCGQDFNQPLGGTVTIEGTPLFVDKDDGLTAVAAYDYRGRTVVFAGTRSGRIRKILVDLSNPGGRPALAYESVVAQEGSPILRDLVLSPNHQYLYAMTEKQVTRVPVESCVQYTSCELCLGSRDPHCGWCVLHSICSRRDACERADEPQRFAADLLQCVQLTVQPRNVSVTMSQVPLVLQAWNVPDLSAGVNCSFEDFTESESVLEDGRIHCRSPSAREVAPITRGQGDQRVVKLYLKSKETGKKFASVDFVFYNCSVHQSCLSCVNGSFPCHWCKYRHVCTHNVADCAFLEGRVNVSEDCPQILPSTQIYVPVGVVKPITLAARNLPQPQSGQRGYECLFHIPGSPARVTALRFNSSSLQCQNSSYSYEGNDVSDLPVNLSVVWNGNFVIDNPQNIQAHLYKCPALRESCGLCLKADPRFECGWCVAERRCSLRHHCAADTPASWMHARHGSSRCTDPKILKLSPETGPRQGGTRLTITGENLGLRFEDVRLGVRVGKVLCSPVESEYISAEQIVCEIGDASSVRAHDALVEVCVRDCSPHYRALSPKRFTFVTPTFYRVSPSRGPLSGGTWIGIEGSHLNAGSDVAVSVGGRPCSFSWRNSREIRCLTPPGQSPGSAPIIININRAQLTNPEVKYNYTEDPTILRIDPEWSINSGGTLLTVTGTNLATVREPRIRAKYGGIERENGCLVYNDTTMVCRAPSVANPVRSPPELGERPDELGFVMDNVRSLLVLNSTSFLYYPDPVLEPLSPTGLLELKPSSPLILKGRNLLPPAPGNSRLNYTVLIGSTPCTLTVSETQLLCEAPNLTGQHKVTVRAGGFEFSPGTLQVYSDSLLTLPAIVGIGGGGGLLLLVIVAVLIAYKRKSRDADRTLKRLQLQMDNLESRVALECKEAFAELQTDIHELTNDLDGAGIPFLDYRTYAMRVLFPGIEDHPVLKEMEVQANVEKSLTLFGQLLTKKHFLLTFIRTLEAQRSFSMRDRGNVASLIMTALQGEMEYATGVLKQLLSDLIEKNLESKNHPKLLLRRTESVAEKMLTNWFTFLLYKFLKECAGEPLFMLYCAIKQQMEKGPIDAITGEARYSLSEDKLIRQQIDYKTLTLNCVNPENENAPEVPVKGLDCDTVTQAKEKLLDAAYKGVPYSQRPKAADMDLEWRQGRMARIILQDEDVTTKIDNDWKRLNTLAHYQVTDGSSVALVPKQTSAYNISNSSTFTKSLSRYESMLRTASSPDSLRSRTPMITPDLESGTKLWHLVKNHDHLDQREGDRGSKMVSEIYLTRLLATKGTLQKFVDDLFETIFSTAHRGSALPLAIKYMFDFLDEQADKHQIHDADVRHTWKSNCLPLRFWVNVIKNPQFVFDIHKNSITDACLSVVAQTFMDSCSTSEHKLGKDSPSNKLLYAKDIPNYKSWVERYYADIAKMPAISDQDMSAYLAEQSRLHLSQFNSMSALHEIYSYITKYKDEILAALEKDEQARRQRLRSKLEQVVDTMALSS

T1: ARGBP2, Arg/Abl binding protein, aa 319-1100, Activation Domain (AD) fusion (human) (UniProt O94875)
T1 sequence (looked up): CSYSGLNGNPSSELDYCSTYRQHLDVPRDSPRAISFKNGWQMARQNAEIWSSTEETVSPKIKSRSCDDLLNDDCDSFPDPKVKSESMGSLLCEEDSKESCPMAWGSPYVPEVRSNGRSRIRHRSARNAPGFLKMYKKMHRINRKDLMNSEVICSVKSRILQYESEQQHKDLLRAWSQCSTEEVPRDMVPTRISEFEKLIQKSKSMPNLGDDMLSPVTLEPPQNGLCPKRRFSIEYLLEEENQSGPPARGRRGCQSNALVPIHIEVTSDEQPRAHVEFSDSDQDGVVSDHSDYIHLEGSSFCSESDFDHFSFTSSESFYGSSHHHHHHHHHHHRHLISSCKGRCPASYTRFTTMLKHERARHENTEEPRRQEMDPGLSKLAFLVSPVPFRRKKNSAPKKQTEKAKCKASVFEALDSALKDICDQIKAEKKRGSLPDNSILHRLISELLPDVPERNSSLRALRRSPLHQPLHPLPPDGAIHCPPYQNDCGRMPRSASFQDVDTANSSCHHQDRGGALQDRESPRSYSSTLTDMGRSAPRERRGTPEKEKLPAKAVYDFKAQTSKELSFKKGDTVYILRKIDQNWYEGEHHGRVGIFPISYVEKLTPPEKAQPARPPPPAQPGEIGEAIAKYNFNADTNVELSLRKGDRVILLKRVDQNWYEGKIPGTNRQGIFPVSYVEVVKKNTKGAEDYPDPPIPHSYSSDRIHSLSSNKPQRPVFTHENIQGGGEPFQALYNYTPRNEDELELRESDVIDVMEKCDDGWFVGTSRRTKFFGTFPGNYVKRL


Assays:
[1] = molecular target: Plexin A1 with c-myc epitope (UniProt Q9UIW2); experiment: co-immunoprecipitation from co-transfected cells (IP c-myc / blot V5-his, and IP V5-his / blot c-myc)
[2] = molecular target: Plexin A1 with c-myc epitope (UniProt Q9UIW2); experiment: co-immunoprecipitation, Western blot
[3] = molecular target: T1, ARGBP2, Arg/Abl binding protein, aa 319-1100, Activation Domain (AD) fusion (human); experiment: yeast two-hybrid screen (PathCalling)

binding [1]	binding [2]	binding [3]	Binder
binds	binds		CG51896-02 (Semaphorin 6A extracellular domain) with V5-His epitope (ligand, not shown: small tags and cut ends) GFPEDSEPISISHGNYTKQYPVFVGHKPGRNTTQRHRLDIQMIMIMNGTLYIAARDHIYTVDIDTSHTEEIYCSKKLTWKSRQADVDTCRMKGKHKDECHNFIKVLLKKNDDALFVCGTNAFNPSCRNYKMDTLEPFGDEFSGMARCPYDAKHANVALFADGKLYSATVTDFLAIDAVIYRSLGESPTLRTVKHDSKWLKEPYFVQAVDYGDYIYFFFREIAVEYNTMGKVVFPRVAQVCKNDMGGSQRVLEKQWTSFLKARLNCSVPGDSHFYFNILQAVTDVIRINGRDVVLATFSTPYNSIPGSAVCAYDMLDIASVFTGRFKEQKSPDSTWTPVPDERVPKPRPGCCAGSSSLERYATSNEFPDDTLNFIKTHPLMDEAVPSIFNRPWFLRTMVRYRLTKIAVDTAAGPYQNHTVVFLGSEKGIILKFLARIGNSGFLNDSLFLEEMSVYNSEKCSYDGVEDKRIMGMQLDRASSSLYVAFSTCVIKVPLGRCERHGKCKKTCIASRDPYCGWIKEGGACSHLSPNSRLTFEQDIERGNTDGLGDCHNSFVALNGHSSSLLPSTTTSDSTAQEGYESRGGMLDWKHLLDSPDSTDPLGAVSSHNHQDKKGVIRESYLKGHDQ
		binds	CG51896-10, intracellular domain, aa 805-1047, Binding Domain (BD) fusion (protein, not shown: large carriers) TKDMPPMGSPVIPTDLPLRASPSHIPSVVVLPITQQGYQHEYVDQPKMSEVAQMALEDQAATLEYKTIKEHLSSKSPNHGVNLVENLDSLPPKVPQREASLGPPGASLSQTGLSKRLEMHHSSSYGVDYKRSYPTNSLTRSHQATTLKRNNTNSSNSSHLSRNQSFGRGDNPPPAPQRVDSIQVHSSQPSGQAVTVSRQPSLNAYNSLTRSGLKRTPSLKPDVPPKPSFAPLSTSMKPNDACT
